Source: the supplement of paper PMC8975748
Structures can show the parent of a compound that is named as a salt. ± gives the standard deviation of the averaged measurements. The list shows a part of the results. These are raw signals, not scaled to a control.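 A single yeast strain with four plasmids, each encoding a fluorescent protein and an amino-acid or uracil biosynthesis gene, seeds the community. Stochastic plasmid loss yields mixed prototroph and auxotroph subpopulations. Fixed cells were counted via automated confocal fluorescence imaging; DMSO-treated wells were the vehicle reference.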 Numbered stars: 1 amine (or outer) side, 2 acyl side, 3 side chain; on linkers, the order of the positions; unused ones are H or OH. Bridge positions count the residues as written; N and C are the ends. Square brackets hold non-standard residues; d marks the D form. Peptide text beside a SMILES is read from it. * marks the point of attachment. ξ: configuration not given here. X1 = N=C1NCCC([C@H](N[*:1])C(=O)[*:2])N1; ΔAla(Z-3-ureido) = NC(=O)N/C=C(\N)C(=O)O; ξβ3hOrn = NCCCC(N)CC(=O)*; Dap = NC[C@H](N)C(=O)O

These molecules were tested on Saccharomyces cerevisiae BY4741 SeMeCo community (assay: imaged cell count per well (cells); higher = more cells). Settings: 10 µM; 24 h; SM minimal medium.
Protocol: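 Same SeMeCo high-content imaging drug screen: Selleck FDA-approved drugs at 10 µM, 24 h in SM medium, 384-well plates, 3 replicates.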

`CC1(C)S[C@@H]2[C@H](NC(=O)Cc3ccccc3)C(=O)N2[C@H]1C(=O)O` [Penicillin G Sodium] was tested. Which “imaged cell count per well” value did it give?
The value was 17200 ± 11000.

Which “imaged cell count per well” value does the source give for `O=[N+]([O-])c1ccc(O)c2ncccc12` [Nitroxoline] here?
The value was 738 ± 200.

Which “imaged cell count per well” value does the source give for `CC1(C)S[C@@H]2[C@H](NC(=O)[C@H](N)c3ccccc3)C(=O)N2[C@H]1C(=O)OCOC(=O)[C@@H]1N2C(=O)C[C@H]2S(=O)(=O)C1(C)C` [Sultamicillin Tosylate] here?
Its value is 25700 ± 4000.

How did the “imaged cell count per well” value turn out when `CN[C@@H]1[C@@H](O[C@H]2O[C@H](CO)[C@@H](N)[C@H](O)[C@H]2O)OC2C[C@@H](N)[C@@H](O[C@H]3[C@H](O)[C@@H](O)[C@H](N)C[C@@H]3N)OC2[C@@H]1O` (stereo partly drawn) [Apramycin Sulfate] was run?
The value was 22500 ± 9600.

With `Cc1ccc(-c2ncc(Cl)cc2-c2ccc(S(C)(=O)=O)cc2)cn1` [Etoricoxib] as the molecule, how does the “imaged cell count per well” value read?
Its value is 23800 ± 6400.

With `C[C@@H]1O[C@@H]1P(=O)(O)O` [Fosfomycin Disodium] as the molecule, how does the “imaged cell count per well” value read?
Its value is 24300 ± 3300.

`CCOc1cc(N)c([N+](=O)[O-])cc1C(=O)NC1CCN(CC2CC=CCC2)CC1` (stereo not drawn) [Cinitapride Hydrogen Tartrate] was tested. Which “imaged cell count per well” value did it give?
Its value is 23500 ± 5400.

With `CN(Cc1ccc(C(C)(C)C)cc1)Cc1cccc2ccccc12` [Butenafine HCl] as the molecule, how does the “imaged cell count per well” value read?
The value was 24100 ± 7800.

`C[C@@H]1NC(=O)[C@@H](N)CNC(=O)[C@H](C2CCNC(=N)N2)NC(=O)/C(=C/NC(N)=O)NC(=O)[C@H](CNC(=O)CC(N)CCCN)NC1=O.N=C1NCC[C@H]([C@@H]2NC(=O)/C(=C/NC(N)=O)NC(=O)[C@H](CNC(=O)C[C@@H](N)CCCN)NC(=O)[C@H](CO)NC(=O)[C@@H](N)CNC2=O)N1` [Capreomycin Sulfate] (H-[Dap]S[Dap](ξβ3hOrn)[ΔAla(Z-3-ureido)][X1]; lactam 1-C) was tested. Which “imaged cell count per well” value did it give?
The value was 21300 ± 8300.

For `C[C@]12CC[C@@H]3c4ccc(O)cc4CC[C@H]3[C@@H]1CCC2=O` [Estrone], which “imaged cell count per well” value is on record?
Its value is 26000 ± 3500.

How did the “imaged cell count per well” value turn out when `CN(C)CCOc1ccc(/C(=C(/CCCl)c2ccccc2)c2ccccc2)cc1` [Toremifene Citrate] was run?
Its value is 23300 ± 6600.

Which “imaged cell count per well” value does the source give for `O=C1[C@H]2CCCC[C@H]2C(=O)N1CCCCN1CCN(c2nsc3ccccc23)CC1` [Perospirone hydrochloride] here?
Its value is 24200 ± 6700.

How did the “imaged cell count per well” value turn out when `CC1=C(CC(=O)O)c2cc(F)ccc2/C1=C\c1ccc([S+](C)[O-])cc1` (stereo not drawn) [Sulindac] was run?
Its value is 26800 ± 3400.

`Nc1nnc(-c2cccc(Cl)c2Cl)c(N)n1` [Lamotrigine] was tested. Which “imaged cell count per well” value did it give?
The value was 25700 ± 3500.

With `O=C(O)c1cc(O)c2c(c1)[C@H]([C@H]1c3cc(C(=O)O)cc(O)c3C(=O)c3c(O[C@@H]4O[C@H](CO)[C@@H](O)[C@H](O)[C@H]4O)cccc31)c1cccc(O[C@@H]3O[C@H](CO)[C@@H](O)[C@H](O)[C@H]3O)c1C2=O` [Sennoside A] as the molecule, how does the “imaged cell count per well” value read?
The value was 26500 ± 3800.

For `Clc1ccc(COC(Cn2ccnc2)c2ccc(Cl)cc2Cl)cc1` (stereo not drawn) [Econazole nitrate], which “imaged cell count per well” value is on record?
The value was 4020 ± 1600.

How did the “imaged cell count per well” value turn out when `Cc1ccc(Nc2c(F)cccc2Cl)c(CC(=O)O)c1` [Lumiracoxib] was run?
The value was 11300 ± 5700.

Which “imaged cell count per well” value does the source give for `CN1CCN(c2c(F)cc3c(=O)c(C(=O)O)cn4c3c2OCN4C)CC1` [Marbofloxacin] here?
The value was 31200 ± 5700.

For `COc1ccc2cc3[n+](cc2c1OC)CCc1cc2c(cc1-3)OCO2` [Berberine chloride], which “imaged cell count per well” value is on record?
The value was 20800 ± 840.

`O=C1Nc2ccccc2C1=O` [Isatin] was tested. Which “imaged cell count per well” value did it give?
The value was 26400 ± 6200.

For `O=C(O[C@@H]1C[C@@H]2C[C@H]3C[C@H](C1)N2CC3=O)c1c[nH]c2ccccc12` [Dolasetron Mesylate], which “imaged cell count per well” value is on record?
Its value is 29800 ± 4600.

`Oc1ccc(C2CNCCc3c2cc(O)c(O)c3Cl)cc1` (stereo not drawn) [Fenoldopam mesylate] was tested. Which “imaged cell count per well” value did it give?
The value was 18300 ± 17000.

For `O=C(Nc1cccc(C2=NCCN2)c1)Nc1cccc(C2=NCCN2)c1` [Imidocarb dipropionate], which “imaged cell count per well” value is on record?
Its value is 25700 ± 520.

How did the “imaged cell count per well” value turn out when `CC(C(=O)O)c1ccc2c(c1)Cc1cccnc1O2` (stereo not drawn) [Pranoprofen] was run?
The value was 20200 ± 4600.

How did the “imaged cell count per well” value turn out when `CN1[C@@H]2CC[C@H]1C[C@@H](OC(=O)c1c[nH]c3ccccc13)C2` [Tropisetron HCl] was run?
The value was 16100 ± 1900.

With `CCC(C)(Oc1ccc(C2(c3ccc(OC(C)(CC)C(=O)O)cc3)CCCCC2)cc1)C(=O)O` (stereo not drawn) [Clinofibrate] as the molecule, how does the “imaged cell count per well” value read?
The value was 11200 ± 5600.

`CCC1(c2ccccc2)C(=O)NCNC1=O` [Primidone] was tested. Which “imaged cell count per well” value did it give?
Its value is 16900 ± 1900.

Which “imaged cell count per well” value does the source give for `CCCCCC(=O)O[C@]1(C(C)=O)CC[C@H]2[C@@H]3CCC4=CC(=O)CC[C@]4(C)[C@H]3CC[C@@]21C` [Hydroxyprogesterone caproate] here?
Its value is 23200 ± 2200.

Which “imaged cell count per well” value does the source give for `Oc1c(I)cc(I)c2cccnc12` [Diiodohydroxyquinoline] here?
Its value is 12300 ± 9600.

For `CCN(CC)CCNC(=O)c1cc(S(C)(=O)=O)ccc1OC` [Tiapride Hydrochloride], which “imaged cell count per well” value is on record?
Its value is 13200 ± 6900.

With `C#CCN[C@@H]1CCc2ccccc21` [Rasagiline] as the molecule, how does the “imaged cell count per well” value read?
Its value is 22300 ± 3200.

Which “imaged cell count per well” value does the source give for `OC(c1cc(C(F)(F)F)nc2c(C(F)(F)F)cccc12)C1CCCCN1` (stereo not drawn) [Mefloquine HCl] here?
The value was 22900 ± 6200.

For `NC(=O)N1c2ccccc2CC(=O)c2ccccc21` [Oxcarbazepine], which “imaged cell count per well” value is on record?
Its value is 23700 ± 9400.

`CO[C@H]1C[C@@H]2CC[C@@H](C)[C@@](O)(O2)C(=O)C(=O)N2CCCC[C@H]2C(=O)O[C@H]([C@H](C)C[C@@H]2CC[C@@H](OCCO)[C@H](OC)C2)CC(=O)[C@H](C)/C=C(\C)[C@@H](O)[C@@H](OC)C(=O)[C@H](C)C[C@H](C)/C=C/C=C/C=C/1C` [Everolimus (RAD001)] was tested. Which “imaged cell count per well” value did it give?
Its value is 9540 ± 330.

How did the “imaged cell count per well” value turn out when `O=c1c(-c2ccc(O)cc2)coc2c([C@@H]3O[C@H](CO)[C@@H](O)[C@H](O)[C@H]3O)c(O)ccc12` [Puerarin] was run?
Its value is 19900 ± 7900.

How did the “imaged cell count per well” value turn out when `CC#C[C@]1(O)CC[C@H]2[C@@H]3CCC4=CC(=O)CCC4=C3[C@@H](c3ccc(N(C)C)cc3)C[C@@]21C` [Mifepristone] was run?
Its value is 29500 ± 6000.

How did the “imaged cell count per well” value turn out when `CC[C@H](C)C(=O)O[C@H]1CCC=C2C=C[C@H](C)[C@H](CC[C@@H]3C[C@@H](O)CC(=O)O3)[C@H]21` [Mevastatin] was run?
Its value is 25600 ± 2900.

For `O=C(O)CCCCCCCC(=O)O` [Azelaic acid], which “imaged cell count per well” value is on record?
Its value is 19900 ± 6100.
